Some of the results follow. Small differences around the control level are noise.

Protein sequences, listed by entry. Tags and fused reporters are not part of them. Lines headed by an entry give the natural chain unless they say otherwise; changes in a name come on top.
UniProt O43865, whole entry: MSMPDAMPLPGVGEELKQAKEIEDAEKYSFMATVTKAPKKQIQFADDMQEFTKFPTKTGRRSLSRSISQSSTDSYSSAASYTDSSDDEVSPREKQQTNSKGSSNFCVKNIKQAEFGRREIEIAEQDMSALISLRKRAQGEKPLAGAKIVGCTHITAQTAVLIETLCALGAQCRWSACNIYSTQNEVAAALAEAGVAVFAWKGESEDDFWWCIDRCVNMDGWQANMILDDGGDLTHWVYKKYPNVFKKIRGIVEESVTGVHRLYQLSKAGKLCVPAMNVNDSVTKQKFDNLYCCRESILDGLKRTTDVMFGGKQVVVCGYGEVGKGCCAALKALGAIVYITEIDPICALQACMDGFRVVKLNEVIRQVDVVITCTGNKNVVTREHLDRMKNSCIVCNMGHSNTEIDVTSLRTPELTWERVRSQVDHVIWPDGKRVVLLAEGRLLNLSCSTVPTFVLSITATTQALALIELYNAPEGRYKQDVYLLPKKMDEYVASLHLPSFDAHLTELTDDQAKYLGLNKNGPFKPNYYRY
UniProt O75143: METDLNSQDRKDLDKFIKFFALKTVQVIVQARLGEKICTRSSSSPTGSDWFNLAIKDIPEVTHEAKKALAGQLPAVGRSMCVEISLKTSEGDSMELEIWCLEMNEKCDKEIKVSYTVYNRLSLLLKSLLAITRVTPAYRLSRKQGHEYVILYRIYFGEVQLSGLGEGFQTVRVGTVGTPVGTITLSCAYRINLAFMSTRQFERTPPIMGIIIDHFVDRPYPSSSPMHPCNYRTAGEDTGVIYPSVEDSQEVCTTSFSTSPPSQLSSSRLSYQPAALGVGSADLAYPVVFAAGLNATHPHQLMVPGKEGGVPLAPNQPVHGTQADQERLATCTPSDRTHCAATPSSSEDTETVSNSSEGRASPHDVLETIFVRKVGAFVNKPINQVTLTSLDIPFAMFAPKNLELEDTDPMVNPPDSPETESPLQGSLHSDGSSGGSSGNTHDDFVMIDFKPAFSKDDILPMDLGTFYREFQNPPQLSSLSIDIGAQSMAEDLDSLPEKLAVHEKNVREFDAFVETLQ
UniProt O60356: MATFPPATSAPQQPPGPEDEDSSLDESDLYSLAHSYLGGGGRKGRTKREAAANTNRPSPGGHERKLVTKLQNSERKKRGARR
UniProt O75354: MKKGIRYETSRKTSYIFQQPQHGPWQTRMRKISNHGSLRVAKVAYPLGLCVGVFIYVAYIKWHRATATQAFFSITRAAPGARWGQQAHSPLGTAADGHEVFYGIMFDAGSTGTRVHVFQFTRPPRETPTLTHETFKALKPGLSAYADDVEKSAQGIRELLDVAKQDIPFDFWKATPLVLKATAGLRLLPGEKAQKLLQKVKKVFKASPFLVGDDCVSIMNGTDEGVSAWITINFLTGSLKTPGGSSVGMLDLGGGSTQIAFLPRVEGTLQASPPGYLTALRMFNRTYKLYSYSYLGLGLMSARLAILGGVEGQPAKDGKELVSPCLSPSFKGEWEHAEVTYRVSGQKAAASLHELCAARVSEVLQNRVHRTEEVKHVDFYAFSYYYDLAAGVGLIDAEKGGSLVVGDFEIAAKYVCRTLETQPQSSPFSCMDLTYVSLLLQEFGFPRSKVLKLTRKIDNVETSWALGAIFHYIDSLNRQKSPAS
UniProt O60566, whole entry: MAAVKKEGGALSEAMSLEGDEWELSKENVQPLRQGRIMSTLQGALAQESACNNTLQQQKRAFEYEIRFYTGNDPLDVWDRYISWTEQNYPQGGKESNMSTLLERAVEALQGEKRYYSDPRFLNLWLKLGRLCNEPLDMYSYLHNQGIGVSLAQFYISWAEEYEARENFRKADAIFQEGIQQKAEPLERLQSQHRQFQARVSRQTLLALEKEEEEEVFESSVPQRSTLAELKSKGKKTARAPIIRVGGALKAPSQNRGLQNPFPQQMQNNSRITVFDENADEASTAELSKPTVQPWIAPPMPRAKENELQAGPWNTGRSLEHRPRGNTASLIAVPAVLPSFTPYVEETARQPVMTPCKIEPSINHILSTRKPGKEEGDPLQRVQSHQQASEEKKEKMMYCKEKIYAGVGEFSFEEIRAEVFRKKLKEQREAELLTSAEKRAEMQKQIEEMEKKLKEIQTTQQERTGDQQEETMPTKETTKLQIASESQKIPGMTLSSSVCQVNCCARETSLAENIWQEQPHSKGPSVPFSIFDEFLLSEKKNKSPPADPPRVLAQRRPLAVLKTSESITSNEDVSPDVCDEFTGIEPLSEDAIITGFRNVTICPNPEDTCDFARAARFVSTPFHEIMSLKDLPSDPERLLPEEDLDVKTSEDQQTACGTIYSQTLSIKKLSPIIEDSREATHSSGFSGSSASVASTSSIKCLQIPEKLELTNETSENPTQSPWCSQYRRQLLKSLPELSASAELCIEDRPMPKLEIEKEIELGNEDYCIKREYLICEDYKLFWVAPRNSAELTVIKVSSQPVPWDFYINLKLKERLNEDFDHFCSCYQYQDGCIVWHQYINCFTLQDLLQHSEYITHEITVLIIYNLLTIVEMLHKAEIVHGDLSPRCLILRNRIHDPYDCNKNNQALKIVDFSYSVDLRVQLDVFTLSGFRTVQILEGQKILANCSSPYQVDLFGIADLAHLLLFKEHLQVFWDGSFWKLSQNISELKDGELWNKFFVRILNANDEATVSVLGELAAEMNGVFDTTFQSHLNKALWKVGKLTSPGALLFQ
UniProt O43181, whole entry: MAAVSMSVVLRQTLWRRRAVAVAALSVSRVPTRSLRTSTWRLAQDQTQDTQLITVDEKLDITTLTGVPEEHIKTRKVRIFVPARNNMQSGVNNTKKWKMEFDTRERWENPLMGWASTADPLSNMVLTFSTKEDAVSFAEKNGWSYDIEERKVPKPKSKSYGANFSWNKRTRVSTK
UniProt O60861: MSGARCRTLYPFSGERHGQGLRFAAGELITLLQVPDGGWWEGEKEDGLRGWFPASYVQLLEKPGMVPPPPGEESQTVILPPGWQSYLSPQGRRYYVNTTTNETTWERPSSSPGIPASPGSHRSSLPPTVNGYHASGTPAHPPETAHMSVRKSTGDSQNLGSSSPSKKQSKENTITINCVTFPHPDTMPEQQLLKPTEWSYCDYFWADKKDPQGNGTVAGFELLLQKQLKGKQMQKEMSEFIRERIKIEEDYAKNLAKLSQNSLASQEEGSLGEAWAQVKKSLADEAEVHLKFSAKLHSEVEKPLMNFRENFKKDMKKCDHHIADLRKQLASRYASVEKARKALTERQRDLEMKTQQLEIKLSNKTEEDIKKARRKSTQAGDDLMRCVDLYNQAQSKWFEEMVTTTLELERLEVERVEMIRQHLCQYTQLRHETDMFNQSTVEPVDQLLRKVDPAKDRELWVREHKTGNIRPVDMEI
UniProt O43822: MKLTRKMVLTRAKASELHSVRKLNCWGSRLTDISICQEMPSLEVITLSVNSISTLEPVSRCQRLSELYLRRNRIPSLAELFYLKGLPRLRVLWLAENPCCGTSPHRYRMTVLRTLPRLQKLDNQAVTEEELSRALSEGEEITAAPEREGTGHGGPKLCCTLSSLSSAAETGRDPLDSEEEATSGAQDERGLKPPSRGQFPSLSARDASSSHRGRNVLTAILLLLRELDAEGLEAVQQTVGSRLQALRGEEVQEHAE
UniProt O75179: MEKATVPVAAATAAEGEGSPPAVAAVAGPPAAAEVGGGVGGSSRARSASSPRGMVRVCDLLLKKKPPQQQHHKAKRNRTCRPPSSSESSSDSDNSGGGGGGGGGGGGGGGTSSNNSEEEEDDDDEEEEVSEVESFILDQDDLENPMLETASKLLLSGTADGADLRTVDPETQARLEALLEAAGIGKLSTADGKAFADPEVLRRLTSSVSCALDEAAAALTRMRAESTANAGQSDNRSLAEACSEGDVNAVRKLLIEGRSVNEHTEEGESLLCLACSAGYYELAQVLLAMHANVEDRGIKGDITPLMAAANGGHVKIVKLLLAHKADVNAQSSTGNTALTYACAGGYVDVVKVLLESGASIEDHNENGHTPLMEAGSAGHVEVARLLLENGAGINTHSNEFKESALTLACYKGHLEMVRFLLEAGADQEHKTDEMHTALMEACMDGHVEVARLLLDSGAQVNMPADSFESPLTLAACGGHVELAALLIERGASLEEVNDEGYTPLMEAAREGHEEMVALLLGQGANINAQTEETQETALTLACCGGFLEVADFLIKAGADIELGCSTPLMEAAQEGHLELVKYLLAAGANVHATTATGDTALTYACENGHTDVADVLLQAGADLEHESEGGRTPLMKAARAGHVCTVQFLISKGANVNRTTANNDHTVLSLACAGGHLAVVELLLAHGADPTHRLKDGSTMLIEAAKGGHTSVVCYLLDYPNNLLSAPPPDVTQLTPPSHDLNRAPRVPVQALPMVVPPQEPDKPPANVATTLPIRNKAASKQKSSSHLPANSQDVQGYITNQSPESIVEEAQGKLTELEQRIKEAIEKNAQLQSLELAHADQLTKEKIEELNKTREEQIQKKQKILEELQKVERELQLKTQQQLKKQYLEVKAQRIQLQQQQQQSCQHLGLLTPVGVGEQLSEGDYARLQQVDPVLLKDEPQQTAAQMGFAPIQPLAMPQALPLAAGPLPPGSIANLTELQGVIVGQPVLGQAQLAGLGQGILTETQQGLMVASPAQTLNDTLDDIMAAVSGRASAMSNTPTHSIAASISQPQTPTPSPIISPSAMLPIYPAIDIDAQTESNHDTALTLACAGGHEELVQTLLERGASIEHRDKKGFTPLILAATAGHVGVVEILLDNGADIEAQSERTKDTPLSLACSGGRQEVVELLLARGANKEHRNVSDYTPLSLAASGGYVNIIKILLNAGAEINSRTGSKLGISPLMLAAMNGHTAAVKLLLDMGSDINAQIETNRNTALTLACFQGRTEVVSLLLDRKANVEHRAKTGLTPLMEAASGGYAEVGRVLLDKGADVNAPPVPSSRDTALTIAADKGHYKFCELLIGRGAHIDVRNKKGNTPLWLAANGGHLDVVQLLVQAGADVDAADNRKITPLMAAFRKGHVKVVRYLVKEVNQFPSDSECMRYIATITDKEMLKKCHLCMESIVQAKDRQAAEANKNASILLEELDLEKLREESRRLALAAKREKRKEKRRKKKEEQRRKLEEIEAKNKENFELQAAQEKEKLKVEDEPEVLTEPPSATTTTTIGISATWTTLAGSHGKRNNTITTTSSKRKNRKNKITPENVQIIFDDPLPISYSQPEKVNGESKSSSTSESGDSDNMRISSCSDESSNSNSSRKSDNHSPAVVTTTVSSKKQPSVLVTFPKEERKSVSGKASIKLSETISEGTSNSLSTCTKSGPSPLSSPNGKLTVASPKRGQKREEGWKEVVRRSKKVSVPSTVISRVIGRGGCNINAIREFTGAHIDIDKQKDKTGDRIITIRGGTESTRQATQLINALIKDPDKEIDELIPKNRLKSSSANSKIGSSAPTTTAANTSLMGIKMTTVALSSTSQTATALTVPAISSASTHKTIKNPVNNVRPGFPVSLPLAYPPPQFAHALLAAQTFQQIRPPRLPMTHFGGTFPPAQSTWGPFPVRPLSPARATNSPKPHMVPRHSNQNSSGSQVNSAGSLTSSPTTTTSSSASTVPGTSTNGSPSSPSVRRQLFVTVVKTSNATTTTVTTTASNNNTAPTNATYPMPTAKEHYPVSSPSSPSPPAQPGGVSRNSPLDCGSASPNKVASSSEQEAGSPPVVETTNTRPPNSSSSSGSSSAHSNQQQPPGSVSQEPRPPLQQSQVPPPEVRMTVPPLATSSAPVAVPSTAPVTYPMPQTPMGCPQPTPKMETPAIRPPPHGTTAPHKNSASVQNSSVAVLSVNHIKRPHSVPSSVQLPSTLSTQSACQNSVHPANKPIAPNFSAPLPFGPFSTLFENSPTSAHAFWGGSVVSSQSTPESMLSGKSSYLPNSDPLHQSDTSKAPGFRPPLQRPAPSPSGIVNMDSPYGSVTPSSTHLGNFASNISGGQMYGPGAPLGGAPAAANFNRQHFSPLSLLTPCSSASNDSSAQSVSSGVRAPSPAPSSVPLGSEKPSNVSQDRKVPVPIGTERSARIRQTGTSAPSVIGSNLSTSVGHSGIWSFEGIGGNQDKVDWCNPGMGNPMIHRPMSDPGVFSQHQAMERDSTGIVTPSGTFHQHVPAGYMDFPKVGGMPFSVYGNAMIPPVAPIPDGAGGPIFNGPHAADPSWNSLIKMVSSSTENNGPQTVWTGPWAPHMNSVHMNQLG
UniProt O43427: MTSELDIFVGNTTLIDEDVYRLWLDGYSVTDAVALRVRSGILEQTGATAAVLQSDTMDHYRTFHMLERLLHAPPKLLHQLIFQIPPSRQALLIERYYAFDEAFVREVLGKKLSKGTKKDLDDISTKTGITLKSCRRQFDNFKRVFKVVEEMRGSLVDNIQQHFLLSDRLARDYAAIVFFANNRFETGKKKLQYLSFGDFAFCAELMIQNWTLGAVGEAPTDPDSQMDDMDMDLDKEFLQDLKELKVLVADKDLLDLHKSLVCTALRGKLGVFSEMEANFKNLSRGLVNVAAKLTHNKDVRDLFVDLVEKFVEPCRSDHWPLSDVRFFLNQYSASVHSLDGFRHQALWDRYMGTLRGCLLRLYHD

Compound in this assay: Cc1nc(Nc2ncc(C(=O)Nc3c(C)cccc3Cl)s2)cc(N2CCN(CCO)CC2)n1 [dasatinib]
The assay is described as follows: log2 fold change of tryptic peptide abundance, ligand vs vehicle (limited proteolysis) (log2 ratio); higher = more trypsin-susceptible (destabilized). Conditions: ligand concentration: 5 uM; sample: K562 cleared lysate.
In the case of “TBL1X (peptide sequence: GVCTHTLTK, peptide start residue: 495) (UniProt O60907)”, the log2 fold change turned out to be 0.43. As to “GMDS (peptide sequence: TIVWEGKNENEVGR, peptide start residue: 295) (UniProt O60547)”, the log2 fold change is 0.409. Turning to “UniProt O43361 (peptide sequence: KSHLVQHQK, peptide start residue: 450)”, the log2 fold change was -0.152.

“UniProt O43865 (peptide sequence: TPELTWER, peptide start residue: 411)”: the log2 fold change was 0.199. The same measure for “CALU (peptide sequence: DWILPSDYDHAEAEAR, peptide start residue: 256) (UniProt O43852)”: 0.0836. Regarding “OIP5 (peptide sequence: GDFCGGTER, peptide start residue: 18) (UniProt O43482)”, the log2 fold change worked out at 0.101. Turning to “UniProt O60224 (peptide sequence: EVPEASGPQNDGK, peptide start residue: 125)”, the log2 fold change was -0.232. For the target “UniProt O43829 (peptide sequence: EQIACQACGK, peptide start residue: 275)”, the log2 fold change is 0.216.

As to “UniProt O75143 (peptide sequence: INLAFMSTR, peptide start residue: 191)”, the log2 fold change turned out to be 0.427.

Consider “MRPL33 (peptide sequence: LTLLHYDPVVK, peptide start residue: 41) (UniProt O75394)”, for which the log2 fold change was -0.102.

Turning to “UniProt O60356 (peptide sequence: EAAANTNRPSPGGHER, peptide start residue: 49)”, the log2 fold change was -0.0752. The same measure for “PRPF3 (peptide sequence: EVFGDDSEISKESSGVKK, peptide start residue: 93) (UniProt O43395)”: 0.132.

As for “ENTPD6 (peptide sequence: ETPTLTHETFK, peptide start residue: 126) (UniProt O75354)”, the log2 fold change is -0.363. For “PRMT3 (peptide sequence: QQTPCLFCNR, peptide start residue: 46) (UniProt O60678)”, the log2 fold change amounted to 0.779. As to “BUB1B (peptide sequence: EIELGNEDYCIKR, peptide start residue: 758) (UniProt O60566)”, the log2 fold change came to 0.16. Consider “BCL2L11 (peptide sequence: QPSDVSSECDREGR, peptide start residue: 4) (UniProt O43521)”, for which the log2 fold change was determined as 0.326.

As for “SRGAP2 (peptide sequence: MKEYLEGR, peptide start residue: 454) (UniProt O75044)”, the log2 fold change came to 0.105.

Regarding “N4BP1 (peptide sequence: FSQLPFKVEAK, peptide start residue: 442) (UniProt O75113)”, the log2 fold change is -0.463. For the target “NDUFS4 (peptide sequence: NGWSYDIEER, peptide start residue: 141) (UniProt O43181)”, the log2 fold change was -0.164. Turning to “UniProt O60861 (peptide sequence: TEEDIKK, peptide start residue: 365)”, the log2 fold change was 0.0731. Turning to “CFAP410 (peptide sequence: LSELYLR, peptide start residue: 64) (UniProt O43822)”, the log2 fold change amounted to 0.182. In the case of “ANKRD17 (peptide sequence: AGHVCTVQFLISK, peptide start residue: 640) (UniProt O75179)”, the log2 fold change was -0.434.

Consider “UniProt O60381 (peptide sequence: AISVILGDR, peptide start residue: 463)”, for which the log2 fold change was determined as 0.271.

With “FIBP (peptide sequence: TFHMLER, peptide start residue: 62) (UniProt O43427)”, the log2 fold change was -0.138. For the target “CAND2 (peptide sequence: QEFEKQDELKR, peptide start residue: 1164) (UniProt O75155)”, the log2 fold change was found to be 0.145.

As for “VAMP4 (peptide sequence: HLNDDDVTGSVK, peptide start residue: 8) (UniProt O75379)”, the log2 fold change is 0.114.

With “AKAP8 (peptide sequence: KTSLHVAK, peptide start residue: 517) (UniProt O43823)”, the log2 fold change was -0.357.

“CHST10 (peptide sequence: HEIAPGIIR, peptide start residue: 215) (UniProt O43529)”: the log2 fold change was -0.512. As for “PFDN1 (peptide sequence: SVKEAEDNIREMLMAR, peptide start residue: 104) (UniProt O60925)”, the log2 fold change was 0.119.

(Values after the supplement of paper PMC12819154, “High-throughput peptide-centric local stability assay extends protein–ligand identification to membrane proteins, tissues and bacteria” (Nature Structural & Molecular Biology, 2025).)
